Assay results as given in patent US8003357B2, “Acidophilic enzymes” (Helmholtz-Zentrum Fuer Infektionsforschung GmbH, priority 2005, dated 2011).

Assay: Fe2+ content (ICP-MS) and Fe2+ dependence of activity, dialysis against EDTA
Type: biochemical
Conditions: for metal: protein, +EDTA: after dialysis against 1 mM EDTA containing buffer; for Fe content by ICP-MS: purified enzyme; for metal: protein, wild type: natural Fe2+ content, ± standard deviation, three analyses
Procedure: The UV-VIS absorption spectra of purified acidic enzymes are shown in FIG. 4, wherein the uninterrupted lines refer to Fe^2+ containing enzymes and the interrupted lines refer to enzymes after dialysis against EDTA containing buffer. The λ-max values found at ca. 572 nm correlate with the Fe^2+ content, i.e. disappear after incubation with EDTA or DTT for 24 h. ICP-MS analysis confirmed the presence of 0.82±0.10 mol Fe in EstFA, 0.34±0.08 mol Fe in αGluFA, […] and 0.63±0.09 mol Fe in LigFA.
In FIG. 5, relative activities of acidic enzymes with varying content of Fe^2+ are shown. For analysis, purified enzymes were incubated in 1 mM EDTA. At time intervals indicated, two aliquots were removed, one was used for hydrolysis of respective substrates, the other for ICP-MS analysis of Fe. For relative activities, activities before incubation with EDTA were used as 100% values.
When further investigating the dependence of the acidic enzymes according to the invention on Fe^2+, relative activity for EstFA, αGluFA and LigFA were investigated for their natural Fe^2+ content, e.g. wild-type, which was set to 100%, in comparison to the activity after dialysis against a 1 mM EDTA containing buffer.

Molecule | Metal ion required | optimum Fe^2+ concentration [mM] | metal: protein, +EDTA | Fe content by ICP-MS [mol Fe] | metal: protein, wild type
LigFA: DNA ligase obtainable from Ferroplasma acidiphilum, 595 amino acids, Seq. ID No. 3, Fe2+ dependent (protein, listed as Ferroplasma acidiphilum, CDS (1)..(927) est FA, ID No. 3, Fe2+ dependent) MHLMNMVDPDFNSLIELSKSAGDMTKIEPAMLRNFLDESSLSSRGAPVEIKEIKDYKIKLDGRTLNARMYDDNNAKSAILYYHGGGFLFGNIETYDNYCRFLAKESGVKIISIEYRLAPEHKFPDAFNDAYDSFHYIAKKKKDFGIEGRIGVAGDSAGANLAAALCLKCRDGKTEMPAVQVLFYPSLAPDNFSRSFIEYSDNYVLTGKMIRYFGNMYSKNMQDLINPYFSPLVADDFSNLPPAIMVTNEYDPLRDPEETYVKKLREAGVRAVGIRGIGMIHGSATDFEVSDGARNIVKMVARIIPDYL | Fe^2+ | 10 | 0.06 moles Fe^2+ per mole of enzyme | 0.63±0.09 | 2.03 ± 0.09 moles Fe^2+ per mole of enzyme
EstFA: acidophilic, Fe2+ dependent esterase from Ferroplasma acidiphilum, 308 amino acids, Seq ID No. 6 (protein, listed as Ferroplasma acidiphilum, PEPTIDE (1)..(531) alpha Glu FA) INSLYILNHKVIIAVAVSAILIAMVFAGANIPYPGYNPTDHLISGKHPISNVSEVPKNFTLSGNVSNSNNNLPLSGTITVSNSTMSRTFNTSSNGSYNITLPQGNYSISSSIPGFQNYSSTINLDSNKTQNISTPPATTIGNGINQVPGSTNVSTLVPYLNNSIMSGGLNTDNITGTFDKNITIDLGKKLNNTQFVVLMKLDGAVYSYNWVTNGSGMAKLFLKYSGNYTMSAYTLYYNSSVIHYNTANNDTARFNMTERITFISSVILQSAVPLHDNSSVANSTLTVKGGVFSVPSLSVNSNLTGTYYKYEVPVGFYNFAYSNAHYVSKNFGVDVTGNSTVNKTIDPYLISINIRNNTGNTFNYTLGSTFYSGNGIHMATSGITTLLVFHDGKIVYDNTILLTSANPYYQLNLTISNKNLTFNGIETDSTNLSIVYSGNVTSNFYIASLEFENFSTSATNGMIIISGAASGSYPLDSGLYTYNMSQSLPTSAGNLTIKLVYDNDSKVSTDGRMTVEVYGYNISTLGNYITE | Fe^2+ | 4.5 | 0.09 moles Fe^2+ per mole of enzyme | 0.82±0.10 | 1.03 ± 0.10 moles Fe^2+ per mole of enzyme
αGluFA: acidic glucosidase from Ferroplasma acidiphilum, 531 amino acids, Seq ID No. 11 (protein, listed as Ferroplasma acidiphilum, CDS (1)..(1596) alpha glu FA, in Figure 11 designated sequence 5a) INSLYILNHKVIIAVAVSAILIAMVFAGANIPYPGYNPTDHLISGKHPISNVSEVPKNFTLSGNVSNSNNNLPLSGTITVSNSTMSRTFNTSSNGSYNITLPQGNYSISSSIPGFQNYSSTINLDSNKTQNISTPPATTIGNGINQVPGSTNVSTLVPYLNNSIMSGGLNTDNITGTFDKNITIDLGKKLNNTQFVVLMKLDGAVYSYNWVTNGSGMAKLFLKYSGNYTMSAYTLYYNSSVIHYNTANNDTARFNMTERITFISSVILQSAVPLHDNSSVANSTLTVKGGVFSVPSLSVNSNLTGTYYKYEVPVGFYNFAYSNAHYVSKNFGVDVTGNSTVNKTIDPYLISINIRNNTGNTFNYTLGSTFYSGNGIHMATSGITTLLVFHDGKIVYDNTILLTSANPYYQLNLTISNKNLTFNGIETDSTNLSIVYSGNVTSNFYIASLEFENFSTSATNGMIIISGAASGSYPLDSGLYTYNMSQSLPTSAGNLTIKLVYDNDSKVSTDGRMTVEVYGYNISTLGNYITE | Fe^2+ | – | 0.05 moles Fe^2+ per mole of enzyme | 0.34±0.08 | 1.04 ± 0.08 moles Fe^2+ per mole of enzyme
